According to publication PMC4354152:
No constants are given. Whether binding was seen depends on the method and setting. In cells and extracts the contact can be indirect. Some results given as binding are weak or reduced against the parent protein; the word gives no strength. Tags and fused reporters may be left off the sequences shown.

Amino acid sequences for entries named in this document (tags omitted).
UniProt P31751: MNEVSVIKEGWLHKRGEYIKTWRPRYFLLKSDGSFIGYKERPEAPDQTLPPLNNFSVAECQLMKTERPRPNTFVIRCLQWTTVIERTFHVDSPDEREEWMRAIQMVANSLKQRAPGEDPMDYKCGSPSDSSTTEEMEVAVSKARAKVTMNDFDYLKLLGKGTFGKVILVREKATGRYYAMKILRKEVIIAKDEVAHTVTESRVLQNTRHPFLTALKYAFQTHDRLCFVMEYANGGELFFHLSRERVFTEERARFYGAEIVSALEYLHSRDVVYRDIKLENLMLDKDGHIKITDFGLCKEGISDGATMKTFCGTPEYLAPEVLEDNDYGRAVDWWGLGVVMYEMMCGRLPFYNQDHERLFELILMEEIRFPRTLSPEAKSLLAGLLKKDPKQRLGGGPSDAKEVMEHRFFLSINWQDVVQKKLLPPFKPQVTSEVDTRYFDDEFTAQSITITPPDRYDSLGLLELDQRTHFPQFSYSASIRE

Biological target: T1, GST-Tmod3 WT (full-length mouse Tmod3 with GST on the N terminus) (mouse) (UniProt Q9JHJ0)
T1 sequence: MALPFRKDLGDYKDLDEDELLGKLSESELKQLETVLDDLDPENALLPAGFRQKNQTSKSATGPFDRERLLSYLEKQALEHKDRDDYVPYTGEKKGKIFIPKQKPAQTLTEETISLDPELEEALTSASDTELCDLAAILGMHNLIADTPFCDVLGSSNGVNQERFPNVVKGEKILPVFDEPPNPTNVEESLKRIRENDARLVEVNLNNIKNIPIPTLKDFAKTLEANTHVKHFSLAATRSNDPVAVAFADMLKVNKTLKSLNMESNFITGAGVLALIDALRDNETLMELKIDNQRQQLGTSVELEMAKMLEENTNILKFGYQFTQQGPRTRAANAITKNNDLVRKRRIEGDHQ
Test: pull-down; GST-Tmod3 on glutathione beads incubated with lysates of HEK293T expressing FLAG-Akt2; TNET buffer, 4 °C, four washes, western blot; only the target purified

Substance: FLAG-Akt2 expressed in HEK293T (from UniProt P31751 1-481) (enzyme)
- binding: binds
